This is one part of the list. Repeats are few or missing, and single values can be far off.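 The apoptosis fraction was the count of cleaved-PARP antibody-stained nuclei relative to all DNA-stained nuclei, imaged in 1,536-well plates. Screening doses were set so most cells survived, and baseline and induced cleaved-PARP levels vary greatly across cell lines.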
What was measured:
Test in all cases: cleaved PARP positive nuclei fraction relative to DMSO control; melanoma cells; higher = more apoptosis
Conditions in all cases: library dose: low library concentration; 72 h
[1] = test system: MZ2-MEL
[2] = test system: MeWo
[3] = test system: RPMI7951
[4] = test system: RVH-421
[5] = test system: SkMel28
[6] = test system: SkMel2
[7] = test system: SkMel30
[8] = test system: SkMel5
[9] = test system: UACC257
[10] = test system: UACC62
[11] = test system: WM115
[12] = test system: WM1716
[13] = test system: WM1745
[14] = test system: WM3526
[15] = test system: WM3619
[16] = test system: WM451Lu

SMILES | cleaved PARP positive nuclei fraction [1] [%] | cleaved PARP positive nuclei fraction [2] [%] | cleaved PARP positive nuclei fraction [3] [%] | cleaved PARP positive nuclei fraction [4] [%] | cleaved PARP positive nuclei fraction [5] [%] | cleaved PARP positive nuclei fraction [6] [%] | cleaved PARP positive nuclei fraction [7] [%] | cleaved PARP positive nuclei fraction [8] [%] | cleaved PARP positive nuclei fraction [9] [%] | cleaved PARP positive nuclei fraction [10] [%] | cleaved PARP positive nuclei fraction [11] [%] | cleaved PARP positive nuclei fraction [12] [%] | cleaved PARP positive nuclei fraction [13] [%] | cleaved PARP positive nuclei fraction [14] [%] | cleaved PARP positive nuclei fraction [15] [%] | cleaved PARP positive nuclei fraction [16] [%]
Cc1cc(Nc2cc(N3CCN(C)CC3)nc(/C=C/c3ccccc3)n2)n[nH]1 + OCCn1cc(-c2cnc3nnn(Cc4ccc5ncccc5c4)c3n2)cn1 [PF04217903] (first compound 0.04 µM, partner dose 1 µM) | 120 | 100 | 95.7 | 65.3 | 146 | 102 | 97.2 | 106 | 123 | 231 | 44.6 | 104 | 93.2 | 57 | 79.8 | 44.1
Cc1cc(Nc2cc(N3CCN(C)CC3)nc(/C=C/c3ccccc3)n2)n[nH]1 + COC(=O)c1sccc1S(=O)(=O)Nc1ccc(Nc2ccccc2)cc1OC [GSK0660] (first compound 0.04 µM, partner dose 1 µM) | 93.9 | 60.8 | 35.7 | 197 | 122 | 90.2 | 69.7 | 65.9 | 113 | 124 | 91.2 | 52.5 | 91.6 | 146 | 52.4 | 145
Nc1ccn([C@@H]2O[C@H](CO)[C@@H](O)C2(F)F)c(=O)n1 [gemcitabine] + NCC(=O)Nc1ccc(-n2nc(C(F)(F)F)cc2-c2ccc3c(ccc4ccccc43)c2)cc1 [OSU03012] (first compound 0.0004 µM, partner dose 1 µM) | 137 | 91.7 | 215 | 82.1 | 102 | 130 | 115 | 65.9 | 235 | 148 | 43.6 | 224 | 133 | 178 | 128 | 207
Cc1cc(Nc2cc(N3CCN(C)CC3)nc(/C=C/c3ccccc3)n2)n[nH]1 + Cc1nc(Nc2ncc(C(=O)Nc3c(C)cccc3Cl)s2)cc(N2CCN(CCO)CC2)n1 [dasatanib] (first compound 0.04 µM, partner dose 0.004 µM) | 149 | 112 | 63.8 | 83.2 | 49.9 | 49.2 | 78.1 |  |  | 100 | 126 | 60.3 | 92.9 | 30.9 | 98.4 | 29.5
CS(=O)(=O)CCNCc1ccc(-c2ccc3ncnc(Nc4ccc(OCc5cccc(F)c5)c(Cl)c4)c3c2)o1 [lapatinib] + C=CCn1c(=O)c2cnc(Nc3ccc(N4CCN(C)CC4)cc3)nc2n1-c1cccc(C(C)(C)O)n1 [MK1775] (first compound 0.8 µM, partner dose 0.02 µM) | 85.1 | 172 | 69.4 | 37.1 | 200 | 72.1 | 71.1 | 205 | 95.6 | 74 | 53.7 | 118 | 101 | 27.5 | 119 | 46.2
Nc1nc(F)nc2c1ncn2[C@@H]1O[C@H](CO)[C@@H](O)[C@@H]1O [fludarabine] + O=C(CCCCCCC(=O)Nc1ccccc1)NO [vorinostat] (first compound 0.2 µM, partner dose 0.08 µM) | 60.9 | 648 | 47.7 | 44.8 | 43.9 | 457 | 461 | 1010 | 141 | 38.4 | 70.4 | 74.2 | 93.4 | 1500 | 106 | 124
O=C(O)c1ccc2c(c1)nc(Nc1cccc(Cl)c1)c1ccncc12 + CC1(C)NC(=O)N(c2ccc([N+](=O)[O-])c(C(F)(F)F)c2)C1=O [nilutamide] (first compound 0.4 µM, partner dose 1 µM) | 99.6 | 105 | 38.1 | 165 | 46.3 | 131 | 138 | 30.4 | 34.5 | 97.4 | 181 | 151 | 93 | 206 | 89.4 | 86.9
Nc1nc(F)nc2c1ncn2[C@@H]1O[C@H](CO)[C@@H](O)[C@@H]1O [fludarabine] + N#Cc1c(O)c2c(-c3ccc(-c4ccccc4O)cc3)csc2[nH]c1=O [A769662] (first compound 0.2 µM, partner dose 2 µM) | 119 | 985 | 90.4 | 79.1 | 220 | 735 | 542 | 118 | 49.8 | 487 | 35 | 51.3 | 91.9 | 640 | 94 | 101
CC(C)C[C@H](NC(=O)[C@H](Cc1ccccc1)NC(=O)c1cnccn1)B(O)O [Bortezomib] + COCC[n+]1c2c(n(Cc3cnccn3)c1C)C(=O)c1ccccc1C2=O [YM155] (first compound 0.001 µM, partner dose 0.0004 µM) | 261 | 196 | 223 | 153 | 92.6 | 88.8 | 107 |  |  | 188 | 38.1 | 796 | 104 | 46.7 | 425 | 114
CCCS(=O)(=O)Nc1ccc(F)c(C(=O)c2c[nH]c3ncc(Cl)cc23)c1F + COc1ccc(COc2ccc(Cc3cnc(N)nc3N)cc2OC)cc1 [GW2580] (first compound 0.08 µM, partner dose 1 µM) | 109 | 66.1 | 86 | 161 | 135 | 76.2 | 169 | 69 | 48.8 | 108 | 113 | 47.5 | 98.7 | 67 | 107 | 77.3
CC(C)C[C@H](NC(=O)[C@H](Cc1ccccc1)NC(=O)c1cnccn1)B(O)O [Bortezomib] + NCC(=O)Nc1ccc(-n2nc(C(F)(F)F)cc2-c2ccc3c(ccc4ccccc43)c2)cc1 [OSU03012] (first compound 0.001 µM, partner dose 1 µM) | 99.2 | 98.1 | 185 | 80.2 | 109 | 168 | 120 | 36.6 | 133 | 63.5 | 50 | 305 | 190 | 614 | 584 | 364
CNC(=O)c1cc(Oc2ccc(NC(=O)Nc3ccc(Cl)c(C(F)(F)F)c3)cc2)ccn1 [sorafenib] + O=C(CCCCCCC(=O)Nc1ccccc1)NO [vorinostat] (first compound 0.4 µM, partner dose 0.08 µM) | 41.7 | 184 | 97.1 | 166 | 42.6 | 55.3 | 132 | 138 | 215 | 221 | 48.8 | 114 | 99.1 | 89.4 | 99.8 | 65.1
Nc1ncn([C@H]2C[C@H](O)[C@@H](CO)O2)c(=O)n1 [decitabine] + N#Cc1c(O)c2c(-c3ccc(-c4ccccc4O)cc3)csc2[nH]c1=O [A769662] (first compound 0.1 µM, partner dose 2 µM) | 75 | 49.4 | 256 | 69 | 193 | 104 | 103 | 73 | 138 | 213 | 106 | 212 | 95 | 134 | 103 | 20.6
Cc1cc(Nc2cc(N3CCN(C)CC3)nc(/C=C/c3ccccc3)n2)n[nH]1 + Cn1cncc1[C@@](N)(c1ccc(Cl)cc1)c1ccc2c(c1)c(-c1cccc(Cl)c1)cc(=O)n2C [tipifarnib] (first compound 0.04 µM, partner dose 0.01 µM) | 139 | 45.2 | 120 | 168 | 184 | 94.4 | 98.1 | 84.6 | 205 | 101 | 421 | 39.3 | 108 | 74.3 | 97.7 | 95
Cc1cc(Nc2cc(N3CCN(C)CC3)nc(/C=C/c3ccccc3)n2)n[nH]1 + CCN(CC)CCCCNc1ncc2cc(-c3cc(OC)cc(OC)c3)c(NC(=O)NC(C)(C)C)nc2n1 [PD173074] (first compound 0.04 µM, partner dose 0.1 µM) | 50.8 | 70.7 | 77.2 | 93.4 | 70.6 | 71.3 | 39.7 | 152 | 27.7 | 60.5 | 85.5 | 61.8 | 91.4 | 32 | 84.4 | 72.5
CN1CCN(c2ccc3nc(-c4c(N)c5c(F)cccc5[nH]c4=O)[nH]c3c2)CC1 [Dovitinib] + COc1ccc(-c2ccc3c(N4CCOCC4)nc(N4C[C@@H](C)O[C@@H](C)C4)nc3n2)cc1CO [KU0063794] (first compound 0.1 µM, partner dose 0.02 µM) | 140 | 94.2 | 129 | 79.1 | 75.4 | 69.2 | 46.1 | 136 | 115 | 85.2 | 67.2 | 44.9 | 88.3 | 60.3 | 77.9 | 136
C[C@@H](Oc1cc(-c2cnn(C3CCNCC3)c2)cnc1N)c1c(Cl)ccc(F)c1Cl [Crizotinib] + O=C(O)C(=O)Nc1sc2c(c1C(=O)O)CCNC2 [TCS401] (first compound 0.2 µM, partner dose 1.66667 µM) | 217 | 63 | 101 | 85.8 | 172 | 155 | 30.7 | 83.7 | 42.8 | 102 | 110 | 62.4 | 101 | 85.7 | 78 | 33.3
Cc1cc(Nc2cc(N3CCN(C)CC3)nc(/C=C/c3ccccc3)n2)n[nH]1 + O=C(Nc1ccccc1)c1cc([N+](=O)[O-])ccc1Cl [GW9662] (first compound 0.04 µM, partner dose 2 µM) | 133 | 93.3 | 114 | 93.9 | 105 | 103 | 28.6 | 153 | 386 | 107 | 113 | 249 | 86.5 | 39.8 | 96 | 39.8
C=C(c1ccc(C(=O)O)cc1)c1cc2c(cc1C)C(C)(C)CCC2(C)C [Bexarotene] + NC(=O)Nc1cc(-c2cccc(F)c2)sc1C(=O)N[C@H]1CCCNC1 [AZD7762] (first compound 2 µM, partner dose 0.02 µM) | 105 | 75.3 | 105 | 113 | 221 | 67.9 | 58.6 | 144 | 51.6 | 86.7 | 73.4 | 148 | 88.8 | 69.3 | 122 | 94.3

Whole records, quoted from the list. Order of values: cleaved PARP positive nuclei fraction [1] [%] | cleaved PARP positive nuclei fraction [2] [%] | cleaved PARP positive nuclei fraction [3] [%] | cleaved PARP positive nuclei fraction [4] [%] | cleaved PARP positive nuclei fraction [5] [%] | cleaved PARP positive nuclei fraction [6] [%] | cleaved PARP positive nuclei fraction [7] [%] | cleaved PARP positive nuclei fraction [8] [%] | cleaved PARP positive nuclei fraction [9] [%] | cleaved PARP positive nuclei fraction [10] [%] | cleaved PARP positive nuclei fraction [11] [%] | cleaved PARP positive nuclei fraction [12] [%] | cleaved PARP positive nuclei fraction [13] [%] | cleaved PARP positive nuclei fraction [14] [%] | cleaved PARP positive nuclei fraction [15] [%] | cleaved PARP positive nuclei fraction [16] [%]
C=C(c1ccc(C(=O)O)cc1)c1cc2c(cc1C)C(C)(C)CCC2(C)C [Bexarotene] + NC(=O)Nc1cc(-c2cccc(F)c2)sc1C(=O)N[C@H]1CCCNC1 [AZD7762] (first compound 2 µM, partner dose 0.02 µM) as listed: 105 | 75.3 | 105 | 113 | 221 | 67.9 | 58.6 | 144 | 51.6 | 86.7 | 73.4 | 148 | 88.8 | 69.3 | 122 | 94.3
Cc1cc(Nc2cc(N3CCN(C)CC3)nc(/C=C/c3ccccc3)n2)n[nH]1 + O=C(Nc1ccccc1)c1cc([N+](=O)[O-])ccc1Cl [GW9662] (first compound 0.04 µM, partner dose 2 µM) as listed: 133 | 93.3 | 114 | 93.9 | 105 | 103 | 28.6 | 153 | 386 | 107 | 113 | 249 | 86.5 | 39.8 | 96 | 39.8

From the supplement of paper PMC4604168 (melanoma cell lines)
